Laboratory results taken from US20120219561A1, “Prophylaxis Against Cancer Metastasis” (Ingeneron, Inc., priority 2009, published 2012).
At least one compound was matched to its structure with a doubt left.

Test system: LCN2 expression in SKBr3 cells
Assay: Western blotting of LCN2 levels in SKBr3 cells incubated with pathway inhibitors
Type: cell-based, human
Procedure: FIG. 3 depicts experiments showing that LCN2 (NGAL) is a down-stream target of the HER2/PI-3K/AKT/NF-κB pathway. A. Western blotting of LCN2 levels in HER2^+SKBr3 cells treated with Herceptin. B. Western blotting of LCN2 levels in SKBr3 cells incubated with PI-3K inhibitor LY 294002. C. Western blotting of LCN2 levels in SKBr3 cells incubated with the NF-KB inhibitor Bay11-7082. D. Western blotting of LCN2 levels in SKBr3 cells transiently expressing active or dominant negative AKT.
In addition, overexpression of dominant negative AKT led to reduced expression of LCN2, while overexpression of dominant active AKT increased LCN2 levels ([…]). […] Iannetti A, et al. “The neutrophil gelatinase-associated lipocalin (NGAL), a NF-kappaB-regulated gene, is a survival factor for thyroid neoplastic cells” Proc Natl Acad Sci USA 105(37) (2008) 14058.

For `O=c1cc(N2CCOCC2)oc2c(-c3ccccc3)cccc12` [LY294002], the LCN2 expression was “reduced in a dose-dependent manner”.
